Patent publication US9669054B2, “pH buffered bioactive glass, and its preparation process and use” (CHANGZHOU BIO-SHENG TECHNOLOGY CO., LTD., priority 2011, dated 2017)
For some assays here: For at least one compound, name, drawing or mass did not settle the structure. Some of these results come from one statement about several compounds together.

How the values were obtained:
[1] = system: acetic-acid induced chronic gastric ulcers; assay: Treatment of acetic-acid induced chronic gastric ulcers in rats; format: in vivo
Procedure: After fasting for 24 hours, the rats were anesthetized and disinfected in a conventional way, and then was cut from the xiphoid down along the medioventral line to about 2 cm, so as to remove the stomach from the enterocoelia; 5 μl of 100% glacial acetic acid was injected by using a microsyringe into a position close to the muscular layer below the anterior wall serosa of the gastric antrum; when a translucent white spot with a diameter of about 3 mm appeared, the stomach was given back to the enterocoelia, and was enveloped in omentum majus; then, peritoneum, muscular layer and skin were sutured in this order.
Each drug was divided into 5 groups according to the administration method described above, namely, a model group and four groups with different doses of drugs. Each group of the drugs was administered to 6 to 8 mice. […] The following indices were measured:
(1) ulcer index: the longest diameter in the length direction of an ulcer area and the longest diameter in the width direction perpendicular to the longest diameter in the length direction of the ulcer area were measured by a vernier caliper, and the product of the above two diameters is the ulcer index. […]

[2] = system: mouse stress-induced gastric ulcers; assay: Comparative experiment on inhibition of stress-induced gastric ulcers versus representative drugs; format: in vivo; conditions: mice, four doses per drug

## COc1ccc2[nH]c([S+]([O-])Cc3ncc(C)c(OC)c3C)nc2c1 (centres unmarked) [Omeprazole, omeprazole]
[1]
  therapeutic effect on chronic gastric ulcers: > 60%
[2]
  inhibition of occurrence of ulcers: can inhibit occurrence of ulcers and are dose-dependent
